# Laboratory results from paper PMC4763238, “Resveratrol induces autophagy by directly inhibiting mTOR through ATP competition” (Scientific Reports, 2016).
# Assays:
# mTOR [1] = molecular target: mTOR (Homo sapiens, UniProt P42345)
# mTOR [2] = molecular target: mTOR (Homo sapiens, UniProt P42345, D2195A)
smiles,measurement,setting,value
CC(C)n1nc(-c2cc3cc(O)ccc3[nH]2)c2c(N)ncnc21 [PP242],"in vitro kinase assay, positive control for mTOR inhibition",mTOR [1],"PP242, a kinase inhibitor of mTOR, was used as a positive control for mTOR inhibition."
same,in vitro kinase assay with D2195A mTOR,mTOR [2],"PP242 also inhibited DA mTOR, albeit the inhibitory potency was less than WT mTOR (Fig. 5E)"
